Record: PubChem BioAssay AID1224827 (NIAID, 2016)
The deposit covers about 3,800 reagents; shown is a part drawn at random. About 2,200 of all reagents (57%) were called active. 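Active means a strong reporter change in either direction; calls are per siRNA, not per gene; qiagen siRNAs gave weaker effects.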 The numbers tell different reagents against one gene apart. Not all columns of the deposit are shown.

Test: 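Retest primary hits on a TNF reporter with six siRNAs per gene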 (follow-up of hits)
Cells: RAW264.7 G9 mouse macrophage reporter clone
Reagents: single siRNA against mouse genes, 100 nM siRNA
Time to read-out: siRNA for 2 days, then LPS about 16 h
Conditions: bacterial lipopolysaccharide (LPS), 10 ng/ml, cells fixed after overnight (about 16 h) stimulation
Read-out: 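Imaged nuclear TNF reporter intensity, background removed, scaled per plate and to non-targeting control wells, as z-scores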
Reading the numbers: TNF reporter z-score, mean: higher = stronger Tnf promoter reporter signal
Call rule: 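An siRNA is called active when its mean z-score over replicates is at least +2 or at most -2; control wells get no call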

TNF reporter z-score, mean, by target gene and reagent
Rab32 (GeneID 67844): #1 0.815 inactive; #2 -2.8 active; #3 -4.92 active; #4 3.09 active; #5 -0.515 inactive; #6 -2.79 active
Rps29 (GeneID 20090): #1 -1.89 inactive; #2 -3.25 active; #3 -4.99 active; #4 -0.727 inactive; #5 -2.9 active; #6 -3.03 active
Hoxd3 (GeneID 15434): #1 -1.89 inactive; #2 -4.64 active; #3 -5.46 active; #4 2.64 active; #5 1.04 inactive; #6 1.25 inactive
Hnrnph1 (GeneID 59013): #1 -3.41 active; #2 -4.46 active; #3 -5.15 active; #4 1.34 inactive; #5 0.654 inactive; #6 -0.619 inactive
